Laboratory results: PubChem BioAssay AID1259405 (NCATS, 2018)
Assay: 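Silenced genes that increase secreted GFP made by CHO cells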 (primary screen). Cells: Chinese hamster CHO-K1 ovary cells with stable secreted eGFP expression. Reagent: single siRNA against mouse genes, 0.8 pmol siRNA per well (2 µl of 400 nM stock). Time to read-out: 3 days. Read-out: 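Percent of the per-plate non-targeting control median for intracellular GFP per well by laser scanning cytometry and for cell viability by ATP luminescence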. Scale: GFP, % of control: higher = more GFP per well, higher productivity; viability (ATP), % of control: higher = more viable cells (more ATP). Rule for the call: 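a knock-down is called active if GFP reaches 120% or more of non-targeting control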.
Here is an unselected part of about 50,000 reagents tested. About 4,000 of them (8%) count as active. 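Mouse siRNA library applied to hamster cells; one well for each siRNA.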 A number with no mark means an inactive call. The numbers tell different reagents against one gene apart. Reagent sequences are not shown.

gene,siRNA no.,"GFP, % of control","viability (ATP), % of control"
Ess2 (GeneID 27886),1,64.6,70.5
Ess2 (GeneID 27886),2,103,69.7
Ess2 (GeneID 27886),3,125 (active),74.6
Gtf2e1 (GeneID 74197),1,71.3,55.6
Gtf2e1 (GeneID 74197),2,100,91.9
Depdc5 (GeneID 277854),1,73.9,90.6
Depdc5 (GeneID 277854),2,61.7,46.4
Depdc5 (GeneID 277854),3,45,80.1
Ndufa6 (GeneID 67130),1,104,143
Ndufa6 (GeneID 67130),2,93.2,94.8
Or5t17 (GeneID 228228),1,99.7,74
Or5t17 (GeneID 228228),2,66.5,81
Or5t17 (GeneID 228228),3,60.6,94.2
Pros1 (GeneID 19128),1,48.8,77.1
Pros1 (GeneID 19128),2,88.2,92.2
Cul1 (GeneID 26965),1,81.6,90.8
Cul1 (GeneID 26965),2,51.4,70.6
Cul1 (GeneID 26965),3,102,101
Pikfyve (GeneID 18711),1,81.9,101
Pikfyve (GeneID 18711),2,124 (active),105
Pikfyve (GeneID 18711),3,82.2,74.7
Wdr59 (GeneID 319481),1,118,98.9
Wdr59 (GeneID 319481),2,70.9,83.5
Wdr59 (GeneID 319481),3,114,106
Ppt1 (GeneID 19063),1,103,129
Ppt1 (GeneID 19063),2,51.4,86
Ppt1 (GeneID 19063),3,52.9,90
Higd1a (GeneID 56295),1,71.4,82.9
Higd1a (GeneID 56295),2,79.9,79.8
Higd1a (GeneID 56295),3,78.4,82.5
Zfp119b (GeneID 240120),1,93.8,73.7
Zfp119b (GeneID 240120),2,44.5,61.2
Zfp119b (GeneID 240120),3,75.3,91.8
Ttll12 (GeneID 223723),1,49.5,63.3
Ttll12 (GeneID 223723),2,78.9,117
Ttll12 (GeneID 223723),3,86.5,107
Tbc1d1 (GeneID 57915),1,109,75.8
Tbc1d1 (GeneID 57915),2,68.4,69
Tbc1d1 (GeneID 57915),3,57.8,70.6
Pglyrp2 (GeneID 57757),1,41.4,46.3
Pglyrp2 (GeneID 57757),2,142 (active),101
Slc5a6 (GeneID 330064),1,52.9,102
Slc5a6 (GeneID 330064),2,74.6,70.2
Slc5a6 (GeneID 330064),3,81,85.1
Pgrmc1 (GeneID 53328),1,117,123
Pgrmc1 (GeneID 53328),2,87.4,65.6
Pgrmc1 (GeneID 53328),3,67.6,82.3
D17H6S53E (GeneID 114585),1,38.2,80.2
D17H6S53E (GeneID 114585),2,87.9,76.1
D17H6S53E (GeneID 114585),3,49.4,29.5
Opa3 (GeneID 403187),1,62.7,72.7
Opa3 (GeneID 403187),2,167 (active),65.2
Opa3 (GeneID 403187),3,104,106
Or9i2 (GeneID 258626),1,85.7,84
Or9i2 (GeneID 258626),2,82.5,95.6
Or9i2 (GeneID 258626),3,74.4,65.2
Dbn1 (GeneID 56320),1,102,91.4
Dbn1 (GeneID 56320),2,71.1,75.8
Dbn1 (GeneID 56320),3,72.3,71.3

4 entries from above, reformatted:
gene | siRNA no. | GFP, % of control | viability (ATP), % of control
Ndufa6 (GeneID 67130) | 1 | 104 | 143
Ndufa6 (GeneID 67130) | 2 | 93.2 | 94.8
Or5t17 (GeneID 228228) | 1 | 99.7 | 74
Or5t17 (GeneID 228228) | 2 | 66.5 | 81
